At least one peptide structure holds a part that was inferred or is arguable (an end, a ring closure or a residue).
Experiment: Protocol Part A: GLP-1 (7-36 amide) infusion during parenteral nourishment (planned study)
Format: in vivo, Patients
Details: 1.2 pmol/kg/min infused for 4 hours if steady state glucose is above 150 mg/dl; expected outcome of a planned study

**Q.** With `CC[C@H](C)[C@H](NC(=O)[C@H](Cc1ccccc1)NC(=O)[C@H](CCC(=O)O)NC(=O)[C@H](CCCCN)NC(=O)[C@H](C)NC(=O)[C@H](C)NC(=O)[C@H](CCC(N)=O)NC(=O)CNC(=O)[C@H](CCC(=O)O)NC(=O)[C@H](CC(C)C)NC(=O)[C@H](Cc1ccc(O)cc1)NC(=O)[C@H](CO)NC(=O)[C@H](CO)NC(=O)[C@@H](NC(=O)[C@H](CC(=O)O)NC(=O)[C@H](CO)NC(=O)[C@@H](NC(=O)[C@H](Cc1ccccc1)NC(=O)[C@@H](NC(=O)CNC(=O)[C@H](CCC(=O)O)NC(=O)[C@H](C)NC(=O)[C@@H](N)Cc1c[nH]cn1)[C@@H](C)O)[C@@H](C)O)C(C)C)C(=O)N[C@@H](C)C(=O)N[C@@H](Cc1c[nH]c2ccccc12)C(=O)N[C@@H](CC(C)C)C(=O)N[C@H](C(=O)N[C@@H](CCCCN)C(=O)NCC(=O)N[C@@H](CCCNC(=N)N)C(N)=O)C(C)C` [GLP-1 (7-36) amide] as the molecule, how does the “insulin secretion and plasma glucose” value read?
**A.** Its value is “stimulate the insulin secretion and subsequently normalize the plasma glucose”.

Source: patent publication EP0851763B1, “METHOD AND COMPOSITION FOR ENHANCED PARENTERAL NUTRITION” (BIONEBRASKA, INC., priority 1995, dated 2002)
